Results: the supplement of paper PMC10849652
This is one part of the list.

Protein sequences, listed by entry. Tags and fused reporters are not part of them. Lines headed by an entry give the natural chain unless they say otherwise; changes in a name come on top.
UniProt Q9BQA1, whole entry, looked up: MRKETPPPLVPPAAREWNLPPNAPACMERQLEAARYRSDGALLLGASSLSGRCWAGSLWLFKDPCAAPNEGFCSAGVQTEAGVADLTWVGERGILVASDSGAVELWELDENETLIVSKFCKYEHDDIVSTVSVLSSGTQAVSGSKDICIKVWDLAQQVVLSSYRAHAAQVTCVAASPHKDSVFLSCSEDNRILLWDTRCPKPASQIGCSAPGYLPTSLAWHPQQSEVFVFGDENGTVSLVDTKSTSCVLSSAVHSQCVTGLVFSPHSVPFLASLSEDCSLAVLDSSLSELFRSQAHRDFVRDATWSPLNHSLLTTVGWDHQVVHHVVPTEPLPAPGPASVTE
UniProt Q9NZC7: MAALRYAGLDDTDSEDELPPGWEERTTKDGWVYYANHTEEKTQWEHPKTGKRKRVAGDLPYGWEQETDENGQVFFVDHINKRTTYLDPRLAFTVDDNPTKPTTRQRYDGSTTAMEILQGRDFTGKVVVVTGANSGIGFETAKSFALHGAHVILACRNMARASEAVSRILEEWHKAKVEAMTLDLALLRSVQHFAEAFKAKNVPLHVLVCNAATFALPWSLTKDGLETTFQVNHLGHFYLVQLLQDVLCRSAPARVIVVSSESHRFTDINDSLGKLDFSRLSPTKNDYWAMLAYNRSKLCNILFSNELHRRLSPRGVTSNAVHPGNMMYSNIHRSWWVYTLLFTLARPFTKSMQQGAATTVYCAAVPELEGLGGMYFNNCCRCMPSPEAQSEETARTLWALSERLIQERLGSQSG
UniProt Q8N2E2: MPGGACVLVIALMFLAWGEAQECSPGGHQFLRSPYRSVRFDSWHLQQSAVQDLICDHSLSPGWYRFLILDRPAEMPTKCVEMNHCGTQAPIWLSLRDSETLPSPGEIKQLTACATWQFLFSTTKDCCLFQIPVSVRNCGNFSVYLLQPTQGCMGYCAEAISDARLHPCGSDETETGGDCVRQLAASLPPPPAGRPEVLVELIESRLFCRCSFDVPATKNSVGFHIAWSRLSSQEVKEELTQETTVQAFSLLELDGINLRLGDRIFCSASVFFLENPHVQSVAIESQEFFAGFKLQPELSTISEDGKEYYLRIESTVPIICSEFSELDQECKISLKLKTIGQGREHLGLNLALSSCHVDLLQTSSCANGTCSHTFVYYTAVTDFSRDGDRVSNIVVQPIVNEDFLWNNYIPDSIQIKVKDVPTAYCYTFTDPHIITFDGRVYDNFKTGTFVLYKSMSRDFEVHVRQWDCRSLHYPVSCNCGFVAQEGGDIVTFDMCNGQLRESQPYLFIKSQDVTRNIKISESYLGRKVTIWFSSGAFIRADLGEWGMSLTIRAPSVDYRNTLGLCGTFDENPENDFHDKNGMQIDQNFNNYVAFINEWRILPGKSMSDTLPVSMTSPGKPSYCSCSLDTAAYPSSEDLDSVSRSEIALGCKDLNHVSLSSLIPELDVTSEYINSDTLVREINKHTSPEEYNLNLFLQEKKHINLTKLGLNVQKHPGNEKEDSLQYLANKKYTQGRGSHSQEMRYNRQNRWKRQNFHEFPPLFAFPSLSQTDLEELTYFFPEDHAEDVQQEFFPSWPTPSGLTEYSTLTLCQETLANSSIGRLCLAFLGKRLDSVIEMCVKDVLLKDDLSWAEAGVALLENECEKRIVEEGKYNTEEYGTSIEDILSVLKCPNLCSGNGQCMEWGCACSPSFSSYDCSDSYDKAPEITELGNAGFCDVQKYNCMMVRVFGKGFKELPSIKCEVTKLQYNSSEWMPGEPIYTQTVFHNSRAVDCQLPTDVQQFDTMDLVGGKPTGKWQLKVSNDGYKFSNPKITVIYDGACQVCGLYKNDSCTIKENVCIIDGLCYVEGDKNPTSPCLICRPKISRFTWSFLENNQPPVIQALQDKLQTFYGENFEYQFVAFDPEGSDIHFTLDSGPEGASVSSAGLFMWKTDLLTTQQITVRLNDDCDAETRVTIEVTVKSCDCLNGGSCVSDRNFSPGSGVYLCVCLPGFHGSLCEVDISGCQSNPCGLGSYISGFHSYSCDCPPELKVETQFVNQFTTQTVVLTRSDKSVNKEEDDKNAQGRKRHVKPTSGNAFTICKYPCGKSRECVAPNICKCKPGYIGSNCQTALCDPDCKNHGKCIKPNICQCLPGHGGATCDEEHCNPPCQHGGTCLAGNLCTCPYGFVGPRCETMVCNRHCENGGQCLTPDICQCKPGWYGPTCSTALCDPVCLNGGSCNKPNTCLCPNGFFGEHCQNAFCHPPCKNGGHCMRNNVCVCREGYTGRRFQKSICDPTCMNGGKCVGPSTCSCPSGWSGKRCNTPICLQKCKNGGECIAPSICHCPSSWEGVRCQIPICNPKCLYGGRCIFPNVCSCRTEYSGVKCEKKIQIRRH
UniProt Q96P53: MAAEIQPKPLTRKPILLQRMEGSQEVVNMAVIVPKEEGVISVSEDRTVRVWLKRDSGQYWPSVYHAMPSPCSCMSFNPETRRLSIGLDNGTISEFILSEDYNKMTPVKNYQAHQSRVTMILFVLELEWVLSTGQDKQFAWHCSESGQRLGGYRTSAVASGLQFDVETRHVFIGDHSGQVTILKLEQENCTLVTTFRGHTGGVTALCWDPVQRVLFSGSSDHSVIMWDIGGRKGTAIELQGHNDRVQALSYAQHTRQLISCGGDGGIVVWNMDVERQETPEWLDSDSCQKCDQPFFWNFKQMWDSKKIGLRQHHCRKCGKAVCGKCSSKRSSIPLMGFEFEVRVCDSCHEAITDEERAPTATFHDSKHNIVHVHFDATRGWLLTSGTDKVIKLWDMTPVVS
UniProt Q7Z5U6: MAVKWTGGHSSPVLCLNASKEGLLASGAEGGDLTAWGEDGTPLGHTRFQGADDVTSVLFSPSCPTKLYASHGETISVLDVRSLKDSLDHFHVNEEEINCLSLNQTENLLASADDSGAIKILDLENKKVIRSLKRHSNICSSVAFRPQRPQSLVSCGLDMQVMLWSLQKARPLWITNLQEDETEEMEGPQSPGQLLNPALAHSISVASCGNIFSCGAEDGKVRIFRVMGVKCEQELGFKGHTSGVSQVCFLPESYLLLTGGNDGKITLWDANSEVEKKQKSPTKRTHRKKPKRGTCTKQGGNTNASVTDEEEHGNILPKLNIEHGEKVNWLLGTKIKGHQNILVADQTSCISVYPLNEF
UniProt Q9UEU0: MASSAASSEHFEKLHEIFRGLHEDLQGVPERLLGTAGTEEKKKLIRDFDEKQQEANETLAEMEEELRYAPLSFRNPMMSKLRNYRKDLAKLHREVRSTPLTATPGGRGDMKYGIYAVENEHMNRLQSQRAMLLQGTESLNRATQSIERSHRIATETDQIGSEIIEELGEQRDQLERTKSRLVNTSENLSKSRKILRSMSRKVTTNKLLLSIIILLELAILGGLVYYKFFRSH
UniProt Q15906, whole entry, looked up: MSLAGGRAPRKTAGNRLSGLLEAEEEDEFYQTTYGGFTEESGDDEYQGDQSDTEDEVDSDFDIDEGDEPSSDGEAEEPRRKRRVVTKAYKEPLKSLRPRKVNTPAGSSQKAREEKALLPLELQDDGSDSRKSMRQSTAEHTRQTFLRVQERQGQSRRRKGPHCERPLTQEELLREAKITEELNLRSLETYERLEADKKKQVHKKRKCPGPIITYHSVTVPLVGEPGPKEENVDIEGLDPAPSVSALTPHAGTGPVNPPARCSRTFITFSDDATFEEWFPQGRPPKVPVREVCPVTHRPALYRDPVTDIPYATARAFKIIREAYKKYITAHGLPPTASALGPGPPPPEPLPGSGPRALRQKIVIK
UniProt A5D8V6: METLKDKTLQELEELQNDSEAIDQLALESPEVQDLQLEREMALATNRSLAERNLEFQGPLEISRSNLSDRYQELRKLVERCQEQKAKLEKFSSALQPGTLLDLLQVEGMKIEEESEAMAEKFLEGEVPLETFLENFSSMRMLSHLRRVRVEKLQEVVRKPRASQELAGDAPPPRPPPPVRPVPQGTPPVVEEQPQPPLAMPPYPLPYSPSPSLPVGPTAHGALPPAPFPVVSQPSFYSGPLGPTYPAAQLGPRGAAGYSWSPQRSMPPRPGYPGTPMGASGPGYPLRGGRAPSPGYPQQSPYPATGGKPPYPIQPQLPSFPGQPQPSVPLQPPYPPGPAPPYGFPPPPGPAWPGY
UniProt Q9HD64: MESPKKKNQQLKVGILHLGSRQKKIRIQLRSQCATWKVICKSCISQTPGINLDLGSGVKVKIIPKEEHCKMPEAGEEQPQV
UniProt Q96EX3: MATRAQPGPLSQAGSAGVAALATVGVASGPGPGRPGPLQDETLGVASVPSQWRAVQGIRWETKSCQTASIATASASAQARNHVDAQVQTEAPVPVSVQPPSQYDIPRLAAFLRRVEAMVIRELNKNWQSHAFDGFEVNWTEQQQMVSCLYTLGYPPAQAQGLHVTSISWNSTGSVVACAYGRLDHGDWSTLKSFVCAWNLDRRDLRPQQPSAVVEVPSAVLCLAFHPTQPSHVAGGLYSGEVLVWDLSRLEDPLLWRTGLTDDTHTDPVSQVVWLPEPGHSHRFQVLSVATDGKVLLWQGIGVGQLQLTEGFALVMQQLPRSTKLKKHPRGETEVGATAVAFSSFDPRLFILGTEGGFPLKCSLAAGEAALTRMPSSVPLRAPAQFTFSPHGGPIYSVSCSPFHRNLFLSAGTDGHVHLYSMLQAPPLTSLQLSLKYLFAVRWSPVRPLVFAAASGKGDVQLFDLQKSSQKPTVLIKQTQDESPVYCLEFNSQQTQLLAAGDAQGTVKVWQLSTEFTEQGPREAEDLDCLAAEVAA
UniProt Q92558: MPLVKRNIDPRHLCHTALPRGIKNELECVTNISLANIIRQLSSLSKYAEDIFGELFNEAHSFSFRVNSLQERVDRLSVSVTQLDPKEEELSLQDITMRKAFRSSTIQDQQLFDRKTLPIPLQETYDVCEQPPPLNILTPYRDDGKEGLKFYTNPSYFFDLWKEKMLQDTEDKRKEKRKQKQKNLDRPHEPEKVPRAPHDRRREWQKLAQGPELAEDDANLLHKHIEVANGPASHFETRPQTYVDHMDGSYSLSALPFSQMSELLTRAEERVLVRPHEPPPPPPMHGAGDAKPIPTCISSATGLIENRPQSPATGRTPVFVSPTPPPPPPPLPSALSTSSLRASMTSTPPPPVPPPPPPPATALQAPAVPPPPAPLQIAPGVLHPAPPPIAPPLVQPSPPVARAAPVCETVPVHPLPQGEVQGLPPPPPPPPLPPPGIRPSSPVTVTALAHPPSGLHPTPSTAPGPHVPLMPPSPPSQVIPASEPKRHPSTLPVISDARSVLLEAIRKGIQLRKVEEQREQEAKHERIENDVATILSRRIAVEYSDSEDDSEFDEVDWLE
UniProt Q5MNZ9: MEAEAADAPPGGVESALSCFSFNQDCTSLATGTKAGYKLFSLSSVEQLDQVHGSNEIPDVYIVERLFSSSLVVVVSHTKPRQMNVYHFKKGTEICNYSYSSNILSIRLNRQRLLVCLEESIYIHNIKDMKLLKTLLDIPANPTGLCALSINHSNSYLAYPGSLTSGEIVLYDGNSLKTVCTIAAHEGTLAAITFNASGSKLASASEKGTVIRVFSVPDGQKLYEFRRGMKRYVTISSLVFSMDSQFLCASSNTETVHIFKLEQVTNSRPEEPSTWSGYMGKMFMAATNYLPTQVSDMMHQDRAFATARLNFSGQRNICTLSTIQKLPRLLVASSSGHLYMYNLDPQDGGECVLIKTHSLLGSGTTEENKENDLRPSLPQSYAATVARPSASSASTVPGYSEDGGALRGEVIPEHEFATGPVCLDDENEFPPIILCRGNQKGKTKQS
UniProt Q96HA8: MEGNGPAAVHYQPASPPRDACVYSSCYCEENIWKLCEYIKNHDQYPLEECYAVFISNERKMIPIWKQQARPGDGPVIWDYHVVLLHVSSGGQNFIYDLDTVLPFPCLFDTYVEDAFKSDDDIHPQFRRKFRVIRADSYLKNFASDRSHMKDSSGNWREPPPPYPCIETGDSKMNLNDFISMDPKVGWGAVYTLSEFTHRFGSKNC

What was measured:
Test in all cases: log2 fold change, soluble protein after heating vs DMSO (PISA); higher = thermal stabilisation; K562 lysate, 10 uM; active = over 0.2 and 3.5 SD of the protein, either way, in both replicates (recomputed)
[1] = compound: Cn1cc(CNCC2CCN(c3ncc(C(=O)NO)cn3)CC2)c2ccccc21 [quisinostat]
Outline: (§1)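 K562 pellets were dounce-homogenised in PBS pH 7.4 containing 1 mM MgCl2, and the crude extract, at 1 mg/mL protein, was exposed to 10 μM compound for 30 min. Aliquots were heated for 3 min across 48°C-58°C, pooled, brought to 0.5% NP-40 at 4°C and spun at 21,000xg for 90 min, with the supernatant taken as soluble protein. TMTpro 16plex LC-MS/MS with equalised channel sums quantified that protein. Values are log-two fold changes in thermal stability relative to solvent controls, taken from duplicates.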

[2] = compound: NC(=O)Nc1cc(-c2cccc(F)c2)sc1C(=O)N[C@H]1CCCNC1
Outline: as §1

[3] = compound: NC1(c2ccc(-c3nc4ccn5c(=O)[nH]nc5c4cc3-c3ccccc3)cc2)CCC1
Outline: as §1

[4] = compound: O=C(CCCCCCC(=O)Nc1ccccc1)NO [vorinostat]
Outline: as §1

[5] = compound: O=C(O)c1ccc2c(c1)nc(Nc1cccc(Cl)c1)c1ccncc12 [silmitasertib]
Outline: as §1

[6] = compound: O=C1NC(=O)C(c2cnc3ccccn23)=C1c1cn2c3c(cc(F)cc13)CN(C(=O)N1CCCCC1)CC2
Outline: as §1

[7] = compound: Cc1cn(-c2cc(NC(=O)c3ccc(C)c(Nc4nccc(-c5cccnc5)n4)c3)cc(C(F)(F)F)c2)cn1 [nilotinib]
Outline: as §1

[8] = compound: Cc1nc(Nc2n[nH]c3c2CN(C(=O)N[C@H](CN(C)C)c2ccccc2)C3(C)C)c2sccc2n1
Outline: as §1

[9] = compound: Cc1nc(Nc2ncc(C(=O)Nc3c(C)cccc3Cl)s2)cc(N2CCN(CCO)CC2)n1 [dasatinib]
Outline: as §1

[10] = compound: Cc1ncc(-c2ccnc(Nc3ccc(S(C)(=O)=O)cc3)n2)n1C(C)C
Outline: as §1

[11] = compound: Cn1cc(-c2ccc3c(c2)CCN3C(=O)Cc2cccc(C(F)(F)F)c2)c2c(N)ncnc21
Outline: as §1

[12] = compound: Cn1cncc1[C@@](N)(c1ccc(Cl)cc1)c1ccc2c(c1)c(-c1cccc(Cl)c1)cc(=O)n2C [tipifarnib]
Outline: as §1

[13] = compound: NC(=O)c1cnc(N[C@@H]2CCCC[C@@H]2N)nc1Nc1cccc(-n2nccn2)c1
Outline: as §1

[14] = compound: NCC(=O)Nc1ccc(-n2nc(C(F)(F)F)cc2-c2ccc3c(ccc4ccccc43)c2)cc1
Outline: as §1

[15] = compound: c1cn2cc(-c3ccc4cn[nH]c4c3)nc(Nc3ccc(N4CCOCC4)cc3)c2n1 [entospletinib]
Outline: as §1

Row | Target | log2 fold change [1] | log2 fold change [2] | log2 fold change [3] | log2 fold change [4] | log2 fold change [5] | log2 fold change [6] | log2 fold change [7] | log2 fold change [8] | log2 fold change [9] | log2 fold change [10] | log2 fold change [11] | log2 fold change [12] | log2 fold change [13] | log2 fold change [14] | log2 fold change [15]
1 | VLDLR (UniProt P98155) | inactive: -0.172 | inactive: -0.314 | inactive: -0.014 | inactive: 0.325 | inactive: 0.133 | inactive: -0.115 | – | – | – | – | – | – | – | – | –
2 | WDR77 (UniProt Q9BQA1) | inactive: 0.014 | inactive: 0.006 | inactive: 0.039 | inactive: -0.067 | inactive: 0.041 | inactive: -0.01 | inactive: 0.056 | inactive: 0.028 | inactive: 0.093 | inactive: 0 | inactive: -0.013 | inactive: 0.048 | inactive: -0.008 | inactive: -0.052 | inactive: 0.006
3 | WWOX (UniProt Q9NZC7) | inactive: -0.123 | inactive: 0.212 | – | – | – | inactive: 0.089 | – | – | inactive: 0.045 | – | inactive: 0.123 | – | – | inactive: 0.18 | –
4 | VWDE (UniProt Q8N2E2) | inactive: -0.066 | inactive: 0.058 | inactive: -0.035 | inactive: -0.023 | inactive: -0.011 | inactive: 0.002 | inactive: 0.01 | inactive: -0.003 | inactive: -0.037 | inactive: -0.072 | inactive: 0.009 | inactive: -0.013 | inactive: -0.05 | inactive: -0.014 | inactive: -0.072
5 | WDFY2 (UniProt Q96P53) | – | – | inactive: -0.139 | inactive: -0.167 | inactive: 0.001 | – | – | – | inactive: -0.063 | – | inactive: 0.018 | – | – | – | –
6 | WDR53 (UniProt Q7Z5U6) | inactive: -0.088 | inactive: 0.096 | inactive: 0.037 | inactive: -0.129 | inactive: 0.022 | inactive: 0.026 | inactive: -0.158 | inactive: 0.091 | inactive: -0.037 | inactive: 0.131 | inactive: 0.075 | inactive: -0.076 | – | inactive: -0.104 | inactive: 0.036
7 | VTI1B (UniProt Q9UEU0) | inactive: 0.052 | inactive: -0.049 | inactive: -0.002 | inactive: 0.066 | inactive: -0.01 | inactive: -0.037 | inactive: -0.038 | inactive: 0.084 | inactive: 0.026 | inactive: -0.043 | inactive: 0.029 | inactive: -0.041 | inactive: -0.021 | – | inactive: -0.009
8 | WDR19 (UniProt Q8NEZ3) | inactive: -0.454 | inactive: 0.147 | – | – | – | inactive: 0.321 | inactive: -0.306 | inactive: -0.027 | – | inactive: 0.137 | – | inactive: -0.049 | inactive: 0.102 | – | –
9 | VPS72 (UniProt Q15906) | inactive: 0.005 | inactive: 0.05 | inactive: -0.036 | active: -0.401 | inactive: -0.018 | inactive: -0.029 | inactive: 0.029 | inactive: 0.032 | inactive: -0.054 | inactive: 0.05 | inactive: 0.073 | inactive: 0.088 | inactive: -0.03 | inactive: 0.11 | inactive: -0.014
10 | VPS37C (UniProt A5D8V6) | inactive: 0.027 | inactive: -0.01 | inactive: 0.067 | inactive: 0.066 | inactive: -0.019 | inactive: 0.022 | inactive: -0.011 | inactive: 0.088 | inactive: -0.091 | inactive: -0.018 | inactive: -0.064 | inactive: 0.003 | inactive: 0.02 | inactive: 0.039 | inactive: -0.127
11 | XAGE1A (UniProt Q9HD64) | – | – | – | – | – | – | inactive: -0.017 | inactive: -0.058 | – | inactive: 0.159 | – | inactive: -0.139 | – | inactive: -0.065 | inactive: 0.045
12 | WDR34 (UniProt Q96EX3) | inactive: -0.288 | inactive: 0.017 | inactive: 0.013 | inactive: -0.044 | inactive: -0.024 | inactive: 0.045 | inactive: 0.03 | inactive: -0.082 | inactive: -0.08 | inactive: -0.049 | inactive: 0.11 | inactive: 0.087 | – | inactive: 0.056 | inactive: 0.122
13 | WASF1 (UniProt Q92558) | inactive: -0.032 | inactive: -0.003 | inactive: 0.005 | inactive: 0.037 | inactive: -0.006 | inactive: 0.032 | inactive: -0.107 | inactive: -0.029 | inactive: -0.012 | inactive: 0.104 | inactive: 0.035 | inactive: 0.031 | inactive: 0.056 | inactive: 0.044 | inactive: 0.016
14 | WIPI1 (UniProt Q5MNZ9) | inactive: 0.013 | inactive: -0.011 | inactive: 0.011 | inactive: 0.088 | inactive: -0.051 | inactive: 0.026 | inactive: 0.011 | inactive: -0.198 | inactive: 0.06 | active: 0.314 | inactive: -0.028 | inactive: 0.003 | inactive: 0.009 | – | inactive: -0.001
15 | WDYHV1 (UniProt Q96HA8) | inactive: 0.154 | inactive: 0.063 | inactive: -0.053 | inactive: 0.226 | inactive: -0.032 | inactive: -0.077 | inactive: 0.074 | inactive: 0.076 | inactive: 0.031 | inactive: 0.081 | inactive: 0.029 | inactive: -0.105 | inactive: 0.059 | inactive: 0.181 | inactive: 0.107

Full records, quoted from the list. Order of values: log2 fold change [1] | log2 fold change [2] | log2 fold change [3] | log2 fold change [4] | log2 fold change [5] | log2 fold change [6] | log2 fold change [7] | log2 fold change [8] | log2 fold change [9] | log2 fold change [10] | log2 fold change [11] | log2 fold change [12] | log2 fold change [13] | log2 fold change [14] | log2 fold change [15]
WDYHV1 (UniProt Q96HA8) as listed: inactive: 0.154 | inactive: 0.063 | inactive: -0.053 | inactive: 0.226 | inactive: -0.032 | inactive: -0.077 | inactive: 0.074 | inactive: 0.076 | inactive: 0.031 | inactive: 0.081 | inactive: 0.029 | inactive: -0.105 | inactive: 0.059 | inactive: 0.181 | inactive: 0.107
VPS37C (UniProt A5D8V6) as listed: inactive: 0.027 | inactive: -0.01 | inactive: 0.067 | inactive: 0.066 | inactive: -0.019 | inactive: 0.022 | inactive: -0.011 | inactive: 0.088 | inactive: -0.091 | inactive: -0.018 | inactive: -0.064 | inactive: 0.003 | inactive: 0.02 | inactive: 0.039 | inactive: -0.127
